Laboratory results taken from paper PMC3175000.
Results are given in words; binding and its absence hold for the method and conditions named.

Chains of the proteins cited; added tags and fusions are not shown. Lines headed by an entry give the natural chain unless they say otherwise; changes in a name come on top. Residues count along the entry.
UniProt P02769, residues 25-607: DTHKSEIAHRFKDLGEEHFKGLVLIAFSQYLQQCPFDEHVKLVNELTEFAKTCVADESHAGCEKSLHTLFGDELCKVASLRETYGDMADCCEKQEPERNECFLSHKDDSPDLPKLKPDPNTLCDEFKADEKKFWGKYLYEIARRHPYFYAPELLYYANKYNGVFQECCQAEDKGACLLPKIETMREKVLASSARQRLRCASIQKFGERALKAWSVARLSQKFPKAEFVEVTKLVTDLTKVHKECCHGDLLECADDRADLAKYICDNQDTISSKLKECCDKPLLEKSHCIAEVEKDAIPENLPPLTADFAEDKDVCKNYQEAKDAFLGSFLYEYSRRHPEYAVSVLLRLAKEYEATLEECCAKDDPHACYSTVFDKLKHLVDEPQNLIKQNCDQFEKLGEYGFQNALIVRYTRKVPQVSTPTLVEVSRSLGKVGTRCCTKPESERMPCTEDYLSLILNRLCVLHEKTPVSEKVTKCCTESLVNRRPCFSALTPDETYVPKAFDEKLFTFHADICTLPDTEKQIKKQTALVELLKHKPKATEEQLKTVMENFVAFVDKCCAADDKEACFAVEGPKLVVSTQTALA
UniProt Q9UT12: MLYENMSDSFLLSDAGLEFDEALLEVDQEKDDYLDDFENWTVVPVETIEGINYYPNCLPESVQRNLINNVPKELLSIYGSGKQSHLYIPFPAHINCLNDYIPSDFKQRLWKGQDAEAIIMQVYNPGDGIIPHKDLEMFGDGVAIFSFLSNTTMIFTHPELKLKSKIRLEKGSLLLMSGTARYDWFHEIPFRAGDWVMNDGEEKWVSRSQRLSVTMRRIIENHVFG

Target: bovine serum albumin (bovine) (UniProt P02769)
Experiment: condition: 0.125, 0.25, 0.5 and 1 µg BSA dotted; Ofd2 5 µg/ml; far-Western, overlay or dot blot; dot blot: 0.125, 0.25, 0.5 and 1 µg of histones or BSA dotted onto PVDF, blocked in 5% dry milk in PBS, probed with Ofd2 (5 µg/ml in PBS/0.005% Tween 20) at 4°C over night; detected with anti-Ofd2 antibody and chemiluminescence; both purified

binding: no binding
Substance: Schizosaccharomyces pombe Ofd2 (2OG/Fe(II) dioxygenase 2) (from UniProt Q9UT12) (enzyme)
